Assay results published in patent US20240166768A1.
No constants are given. Whether binding was seen depends on the method and setting. For some of these results: A result given as binding can be weak or reduced; the word gives no strength.

Amino acid sequences for entries named in this document (tags omitted). A change or cut given only in a name is not applied to a line headed by its entry.
UniProt P03956: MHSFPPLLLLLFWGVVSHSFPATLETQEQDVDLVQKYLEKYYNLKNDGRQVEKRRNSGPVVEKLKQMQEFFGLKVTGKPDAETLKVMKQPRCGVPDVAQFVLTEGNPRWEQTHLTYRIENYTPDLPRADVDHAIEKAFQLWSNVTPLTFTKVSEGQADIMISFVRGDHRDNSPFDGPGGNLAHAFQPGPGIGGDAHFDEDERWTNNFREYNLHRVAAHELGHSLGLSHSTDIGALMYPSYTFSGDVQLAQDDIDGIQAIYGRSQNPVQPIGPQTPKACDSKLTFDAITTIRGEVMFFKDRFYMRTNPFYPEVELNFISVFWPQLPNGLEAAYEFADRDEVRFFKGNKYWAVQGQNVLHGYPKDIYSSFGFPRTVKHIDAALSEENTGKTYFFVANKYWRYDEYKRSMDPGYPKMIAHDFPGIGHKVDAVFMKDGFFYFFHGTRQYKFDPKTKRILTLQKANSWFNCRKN
UniProt P09237: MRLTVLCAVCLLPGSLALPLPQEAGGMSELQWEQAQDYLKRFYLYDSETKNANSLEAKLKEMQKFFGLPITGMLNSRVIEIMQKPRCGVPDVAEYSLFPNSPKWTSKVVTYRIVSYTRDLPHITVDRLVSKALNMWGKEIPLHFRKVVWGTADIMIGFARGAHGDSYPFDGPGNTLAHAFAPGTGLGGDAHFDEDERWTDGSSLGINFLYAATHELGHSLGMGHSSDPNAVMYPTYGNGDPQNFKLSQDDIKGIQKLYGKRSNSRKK
UniProt P14780: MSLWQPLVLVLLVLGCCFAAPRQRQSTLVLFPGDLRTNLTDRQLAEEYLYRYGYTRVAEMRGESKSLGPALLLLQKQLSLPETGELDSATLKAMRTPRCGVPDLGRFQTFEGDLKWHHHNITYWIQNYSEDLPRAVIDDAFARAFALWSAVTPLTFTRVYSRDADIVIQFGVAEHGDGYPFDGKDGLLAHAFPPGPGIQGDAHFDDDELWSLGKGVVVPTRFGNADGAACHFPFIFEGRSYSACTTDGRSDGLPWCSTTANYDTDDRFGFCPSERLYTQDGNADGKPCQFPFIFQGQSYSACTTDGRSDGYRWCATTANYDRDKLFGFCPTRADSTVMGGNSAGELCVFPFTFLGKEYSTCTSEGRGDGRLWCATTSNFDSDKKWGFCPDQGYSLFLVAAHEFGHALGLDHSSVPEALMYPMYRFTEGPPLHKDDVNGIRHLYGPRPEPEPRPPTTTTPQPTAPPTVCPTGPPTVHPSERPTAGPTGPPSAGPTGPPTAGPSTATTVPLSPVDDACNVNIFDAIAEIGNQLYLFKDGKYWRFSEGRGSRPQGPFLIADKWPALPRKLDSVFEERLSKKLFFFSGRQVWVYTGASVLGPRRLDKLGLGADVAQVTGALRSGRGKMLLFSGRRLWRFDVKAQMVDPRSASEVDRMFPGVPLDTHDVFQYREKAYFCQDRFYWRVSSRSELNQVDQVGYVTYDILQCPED
UniProt P08254: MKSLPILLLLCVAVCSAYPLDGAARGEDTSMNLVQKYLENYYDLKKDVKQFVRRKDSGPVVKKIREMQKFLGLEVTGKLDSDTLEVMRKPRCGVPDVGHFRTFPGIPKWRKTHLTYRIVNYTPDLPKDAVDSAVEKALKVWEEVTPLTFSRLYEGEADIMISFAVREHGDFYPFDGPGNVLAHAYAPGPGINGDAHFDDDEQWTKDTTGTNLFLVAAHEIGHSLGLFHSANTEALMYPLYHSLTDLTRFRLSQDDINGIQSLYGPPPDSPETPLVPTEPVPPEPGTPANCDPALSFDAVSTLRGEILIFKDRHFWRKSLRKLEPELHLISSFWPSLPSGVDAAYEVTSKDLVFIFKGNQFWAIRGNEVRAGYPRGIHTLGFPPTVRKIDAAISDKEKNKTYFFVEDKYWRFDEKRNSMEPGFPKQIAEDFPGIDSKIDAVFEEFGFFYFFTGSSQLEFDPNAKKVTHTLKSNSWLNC

Columns and labels:
[1] = biological target: KLK4; assay: ELISA heatmap, shade read against the OD630 scale 0-4, mean of two assays; mAb 100 nM per paragraph 311
[2] = biological target: MMP1 (UniProt P03956); assay: as above
[3] = biological target: MMP13; assay: as above
[4] = biological target: MMP2; assay: as above
[5] = biological target: MMP7 (UniProt P09237); assay: as above
[6] = biological target: MMP9 (UniProt P14780); assay: as above
[7] = biological target: MMP3 (UniProt P08254); assay: ELISA on recombinant MMPs
[8] = biological target: MMP1 (UniProt P03956); assay: dose-response ELISA, mAb 100-0.1 nM, OD630

Binder	binding [1]	binding [2]	binding [3]	binding [4]	binding [5]	binding [6]	binding [7]	binding [8]
T27 (antibody, V domains shown) VH: EVQLVESGGGLVQPGRSLRLSCAASGFTFETYAMHWVRQAPGKGLEWVSGISFNSRSRGYADAVRGRFTISRDNSKNSLFLEMNSLRPEDTALYYCARDEKWGTPSDWGQGVLVTVSS VL: QSALTQPASVSRSPGQSITISCTGTKNDVGSYNHVSWYQQHPGKGPKLIIYEVNKRPSGVSDRFSGSKSGNTASLTISGLQAEDEAYYSCSSYAPMTTLVFGGGTKLTVL	binds	binds	binds	binds	binds	binds	–	–
T17 (antibody, V domains shown) VH: EVQLVESGGGLVQPGGSLTLSCTASGFTYFGFAMTWVRQPPGKGLEWISSINLLSGTTYYVDSVKGRFTISRDNSKNTVFLQMKGLTAEDTAVYYCAKVGATQDLHYFDFWGQGTLVTVSS VL: DIQMTQSPSTLSASVGDRVTITCRASQSVYRWLAWYQQKPGEAPKLLVYGAFSLQSGVPPRFSGSGYGTEFTLTISSLQPDDFATYYCQQYNSHSTFGQGTKVEVK	–	binds	–	–	–	binds	–	–
T30 (antibody, V domains shown) VH: EVQLVESGGGVLRPGESLRLSCVASGFTFEDYGMSWVRQVPGKGLEWVSGINWNGGSTRYADSVKGRFTISRDNANNSLYLQMNSLRAEDTALYHCARDKAIQGALMVYAMRGRWFDPWGQGTLVTVSS VL: QAVVTQEPSLTVSPGGTVTLTCGSSTGAVTSGHYPYWFQQKPGQAPRTLIYDTSDRHSWTPARFSGSLRGGKAALTLSGAQPEDEADYYCFLSYNGARVFGGGTKLTVL	binds	binds	binds	binds	binds	binds	–	–
T12 (antibody, human IgG1, V domains shown) VH: EVQLVESGGGLVQPGGSLRLSCAASGFTFNNHDMHWVRQVTGKGLEWVSSIGNFGDTYYSGSVKGRFTISRQDAKNSLYLQMNRLRVGDTAVYYCARGRAVAGNPLDVWGKGTTVTVSS VL: EIVMTQSPATLSVSPGETATLSCRANQTLYNNLAWYQQKPGQAPRLLIYSGSTRATGIPARFSGSGSGTEFSLTISSLQSEDFAVYYCQHYTPWPPYTFGQGTKVDFK	binds	binds	binds	binds	–	–	no binding	binds
T1 (antibody, V domains shown) VH: EVQLVESGGGLEQPGRSLRLSCAASGFSFGDNAMTWFRQAPGKGLEWVGIIRAKGYGGTTEYAASVKGRFTISRDDSKSIAFLQMNNVKVEDTGVYYCAKYASGWEVGFDPWGQGTLVTVSS VL: AIQMTQSPSSLSASVGDRVTITCRASQFIRNDLGWYQQKPGRAPKLLIYAASGLHSGVPARFSGNGSATDFTLTITSLQPEDFATYYCLQDYNFPWTFGQGTKVEIK	–	binds	binds	–	–	–	–	–
T2 (antibody, V domains shown) VH: QVQLVQSGAEVKKPGASVNVSCKASGYNFKAYGVGWVRQAPGQGLEWMGWITPYNGKTNYAQKIQGRVTMTTDTSTTTAYMELRSLQPDDTAMYFCARTPAALASFDYWSQGTLVTVSS VL: DIQMTQSPSTLSASVGDRVTITCRASQSISSWLAWYQQKAGKAPKLLIFDASTLQSGVPSRFSGSGSGTEFSLTISSLQPDDFATYYCQQYYSYSTFGQGTKVEIR	–	binds	binds	binds	–	binds	–	–
T3 (antibody, human IgG1, V domains shown) VH: EVQLVESGGGLVQPGGSLRLSCAASGFTYFSYAMTWVRQAPGKGLEWVSSVNVRVGTSYYADSVKGRFTISSDISKNTVFLQMNSLRADDTAIYYCATVGATQDLRYFDFWGQGTLVTVSS VL: DIQMTQSPSTLSASVGDRVTITCRASQSVYRLLAWYQQKPGKAPKLLIYDAFKLKSGVPPRFSGSGSGTEFTLTISSLQTDDFASYYCQQYNSYSTFGQGTKVEVK	binds	binds	binds	binds	binds	binds	–	binds
T7 (antibody) heavy: QVQLVESGGGVVQPGRSLKLSSVASGFIFNMYGMHWVRQAPGKGLEWVAVISYDGTKEFYADSVKGRFAISRDDSKNTLSLQMNSLRPEDTAVYYSARSPSGHALDLWGQGTVVTVSS light: DIVMTQSPLSLPVTPGEPASISCKSSQSLLLSNGYNYLDWYLQKPGQSPQLLITLASDRASGVPDRFSGSGSGTELQLKIGRVEAEDVGVYYCMQGLQTPFTFGPGTKVEIK	binds	binds	binds	binds	binds	binds	–	–
T6 (antibody, V domains shown) VH: QVQLQQSGPGLVKPSQTLSLTCAISGDSVSSNSAAWNWIRQSPSRGLEWLGRTYYRSRWYSDYAFSVRSRIIVKADTSRNLFSLQLNSMTPEDTAIYYCARDLGIAAADWFDSWGQGTLVTVSS VL: EIVMTQSPATLSVSPGDRATLSCRASQSVSNRLAWYQQKPGQAPRLLIYDASTRATDIPARFSGSGSGTEFTLTISSLQSEDFAIYFCHQYHNWPGFGPGTKLEIK	–	binds	binds	binds	–	binds	–	–
T4 (antibody, V domains shown) VH: QVQLVQSGGEVKKPGASAKVSCKTSGFTFTSYGISWVRQAPGQGLEWMGWINTYNGNTKYAQRLQGRVSMTTDTSTNTAYMELRSLRSDDTAVYYCARGQGRYGDYIYNHWGQGTLVIVSS VL: DIQMTQSPSTLSASVGDRVTITCRASQIISSWVAWYQQRPGKAPKLLIFDASILESGVPSRFSGSATGTEFSLTISGLQPDDFATYYCQHYNDFPLSFGGGTKVEIK	–	binds	–	–	–	–	–	–
T11 (antibody, human IgG1, V domains shown) VH: QVQLVESGGGVVQPGGSLRLSCGASGFTFSRYGMHWVRQAPGKGLEWVSFIRYDGTEKYYADSVKGRFTISRDNSKNTLYLQMNSLRADDAAVYFCANPYITPPTNDYWGQGTLVTVSS VL: DIQMTQSPSSLSASVGDKVTITCRASQDISNYLAWFQQKPGKVPKLLIYGASTLLSGVPSRFSGSQSGTNFTLIISSLQPEDVATYYCQKHNSAPWTFGQGTKVEIK	binds	binds	binds	binds	binds	binds	–	binds
T10 (antibody, human IgG1, V domains shown) VH: QVQLVQSGDEVKEPGASVKVSCKASGYSFTRYGITWVRLAPGQGLEWMGWISAYNGDTNLAQKFQGRVTMTTDTSTTTAYMEMRNLRSDDTAVYYCGRDTRYCSGAGCPRPSWYYYYMDVWGKGTTVTVSS VL: DIQMTQSPSSLSASVGHRVTITCRASQTISNHLNWFQQKPGKAPKLLIYAASRLQTGVPSRFSGSGSGTDFTLTISSLQPEDFATYFCQQTYDIPPYTFGQGTKLEIK	binds	binds	binds	binds	binds	binds	–	binds
T8 (antibody, human IgG1, V domains shown) VH: QVQLQESGPGLVKPSETLSLSCAVSGGSIRGYSWSWIRQPPGKGLEWIADMLYTGTTTFNPSLKSRVTISVDTSKNQFSLKLTSVTAADTAVYYCARGPTVSGPIVVDYWGPGTLVTVSS VL: DIQMTQSPSTLSASVGDRVTITCRASQSISTWLAWYQQKPGKAPKLLIYKASSLESGVPSRFSGSGSGTEFTLTISSLQPDDLATYYCQQYYNYGITFGPGTKVDIQ	–	binds	binds	binds	–	binds	–	binds
T19 (antibody, V domains shown) VH: EVQLLESGGGLVQPGGSLRLSCAASGFTFDNYGMSWVRQAPGKGLEWVSVISSGGVGTYYADSVKGRFIISRDNAKNTLYLQMNSLRAEDTAVYYCAKDLLRYESSGYSPWGQGTLVTVSS VL: EIVLTQSPATLSLSPGDRATLSCRASQSVNTYLAWYQHKPGQAPRLLIYDASKRATGIPARFSGSGSGTDFTLTISSLEPEDFAVYYCQQRANRPPLTFGGGTKVEIK	–	–	binds	–	–	–	–	–
